Data as given in US20260345508A1, “CETYLPYRIDINIUM CHLORIDE HYDRATE-CONTAINING SILICON NANOPARTICLE COMPOSITION AND TECHNOLOGY OF APPLYING SAME” (priority 2022, published 2026).

Experiments:
S. aureus FDA 209P = test: Antimicrobial activity, broth microdilution MIC, S. aureus FDA 209P; format: cell-based, S. aureus FDA 209P (MSSA); conditions: Staphylococcus aureus, FDA209P, MHIIB, 35° C., 20 to 24 hours
Description: (§1) • Test purpose: evaluation of antimicrobial activity of Example 1 against the following test strains • Test strain: S. aureus FDA 209P (MSSA), E. coli ATCC 8739, S. aureus MU-3 (MRSA), P. aeruginosa ATCC 27853 • Test method: broth microdilution method according to Clinical Laboratory Standards Institute • (i) Each strain stored at −80° C. is applied to MHII agar and cultured at 35° C. for 16 to 20 hours, • (ii) The cultured bacteria are suspended in MHIIB to McFarland 0.5, and the suspensions are diluted 100-fold and adjusted to a bacterial count of about 10^6 CFU/mL with MHIIB. • (iii) Each compound stock solution is prepared with MHIIB to the top dose shown in the next section, and 2-fold dilution is repeated with MHIIB to prepare compound-containing media. • (iv) Each compound-containing medium in (iii) is dispensed in an amount of 50 μL into a 96-well plate, followed by inoculation with 50 μL of each bacterial liquid in (ii). Culture is performed at 35° C. for 20 to 24 hours. • Determination method: The lowest concentration at which no bacterial growth is observed with the naked eye is regarded as the minimum inhibitory concentration.

S. aureus MU3 = test: Antimicrobial activity, broth microdilution MIC, S. aureus MU3; format: cell-based, S. aureus MU-3 (MRSA); conditions: Staphylococcus aureus, MHIIB, 35° C., 20 to 24 hours
Description: as §1

E. coli ATCC 8739 = test: Antimicrobial activity, broth microdilution MIC, E. coli ATCC 8739; format: cell-based; conditions: Escherichia coli, ATCC8739, MHIIB, 35° C., 20 to 24 hours
Description: as §1

P. aeruginosa ATCC 27853 = test: Antimicrobial activity, broth microdilution MIC, P. aeruginosa ATCC 27853; format: cell-based; conditions: Pseudomonas aeruginosa, ATCC27853, MHIIB, 35° C., 20 to 24 hours
Description: as §1

CCCCCCCCCCCCCCCC[n+]1ccccc1 [CPC, cetylpyridinium chloride hydrate]
MIC (S. aureus FDA 209P): 5 µg/mL
MIC (S. aureus MU3): 32 µg/mL
MIC (E. coli ATCC 8739): 200 µg/mL
MIC (P. aeruginosa ATCC 27853): > 1000 µg/mL
